Test results taken from US20110152500A1.

How the values were obtained:
TNFα [1] = experiment: phage ELISA, wells coated with 5 µg/ml protein, anti-M13-HRP, absorbance at 450 nm
Avidin [2] = experiment: as above
Avidin [3] = experiment: phage ELISA, wells coated with 5 µg/ml protein, anti-M13-HRP, absorbance at 450 nm; binder taken as the nAchR peptide 1 phage
myoglobin [4] = experiment: as above
lysozyme [5] = experiment: phage ELISA, wells coated with 5 µg/ml protein, anti-M13-HRP, absorbance at 450 nm; binder taken as the VCAM1 peptide 1 phage
TNFα [6] = experiment: as above
myoglobin [7] = experiment: as above
Visfatin = experiment: phage ELISA, wells coated with 5 µg/ml protein, anti-M13-HRP, absorbance at 450 nm
CD7 = experiment: as above
lysozyme [8] = experiment: as above
myoglobin [9] = experiment: as above

Q: With HANFFQGSWTWENGKWTWKGWKYNQS [Peptide 1 specific to VEGF (bipodal-peptide binder)] as the binder, how does the binding (TNFα [1]) read?
A: The binding was “no binding”.

Q: What about the binding (Avidin [2]) of the same binder?
A: The binding was “no binding”.

Q: With EASFWLGSWTWENGKWTWKGKGTLNR [Peptide 1 specific to nAchR (bipodal-peptide binder)] as the binder, how does the binding (Avidin [3]) read?
A: The binding was “no binding”.

Q: What about the binding (myoglobin [4]) of the same binder?
A: Its binding is “no binding”.

Q: How did the binding (lysozyme [5]) turn out when QARDCTGSWTWENGKWTWKGPSICPI [Peptide 1 specific to VCAM1 (bipodal-peptide binder)] was run?
A: Its binding is “no binding”.

Q: And the binding (TNFα [6])?
A: The binding was “no binding”.

Q: What about the binding (myoglobin [7]) of the same binder?
A: Its binding is “no binding”.

Q: With AASPYKGSWTWENGKWTWKGGWRMKM [Peptide 1 specific to HSA (bipodal-peptide binder)] as the binder, how does the binding (TNFα [1]) read?
A: The binding was “no binding”.

Q: What about the binding (Visfatin) of the same binder?
A: Its binding is “no binding”.

Q: Which results are given for HSHAFYGSWTWENGKWTWKGNPGWWT [Peptide 1 specific to MyD88 (bipodal-peptide binder)]?
A: binding (CD7): no binding; binding (TNFα [1]): no binding

Q: For HCSSAVGSWTWENGKWTWKGIIRLEQ [Peptide 2 specific to fibronectin ED-B (bipodal-peptide binder, tryptophan zipper)], which binding (lysozyme [8]) is on record?
A: The binding was “no binding”.

Q: What about the binding (TNFα [1]) of the same binder?
A: The binding was “no binding”.

Q: What about the binding (Visfatin) of the same binder?
A: Its binding is “no binding”.

Q: And the binding (myoglobin [9])?
A: Its binding is “no binding”.

No constants are given. Whether binding was seen depends on the method and setting.
